Source: patent US7722876B2 (priority 2002, dated 2010)
Like-named read-outs stand apart in the source and are kept apart here. Part of at least one peptide drawing is inferred or uncertain, most often the ends. Where a SMILES comes first, the peptide text is derived from it.

Legend:
[1] = tested on: A.castellanii; assay type: cell-based, Acanthamoeba castellanii
[2] = tested on: fluconazole-sensitive (SA-40) C.albicans; design: species or system Candida albicans; settings: in vivo
[3] = tested on: Aspergillus fumigatus; assay type: cell-based
[4] = tested on: C.albicans; assay type: cell-based, Candida albicans; settings: peptide 25 μg/ml
[5] = tested on: germinating cells of C.albicans; assay type: binding, Candida albicans; settings: immunofluorescence
[6] = tested on: penicillin-resistant strains of Streptococcus pneumoniae; assay type: cell-based
[7] = tested on: C.albicans UP10 cells; settings: vs SP0 control
[8] = tested on: methicillin-resistant strains of Staphylococcus aureus (S.aureus a38); assay type: cell-based; settings: 500 μg/ml & 100 μg/ml doses, FIG. 11
[9] = tested on: type A influenza virus (Ulster/73/H7N1) in LLC-MK2 cells; assay type: cell-based
[10] = tested on: Acanthamoeba castellanii trophozoites; assay type: cell-based
[11] = tested on: type A influenza virus infected cells; assay type: cell-based
[12] = tested on: C. albicans SA-40; assay type: in vivo, Candida albicans; settings: SCID mice
[13] = tested on: multidrug resistant strains of Candida spp.; assay type: cell-based
[14] = tested on: C.neoformans UP25; assay type: cell-based, Cryptococcus neoformans; settings: 25 & 10 μg/ml doses, FIG. 10

## CSCC[C@H](NC(=O)[C@@H](NC(=O)[C@@H](NC(=O)[C@H](CCCCN)NC(=O)[C@H](C)N)C(C)C)[C@@H](C)O)C(=O)N[C@H](C(=O)N[C@@H](CS)C(=O)N[C@@H](CO)C(=O)N[C@@H](C)C(=O)N[C@@H](CO)C(N)=O)[C@@H](C)O [KM] (H-AKVTMTCSAS-NH2)
[1]
  cell viability in comparison with SP: reduction in cell viability
[2]
  resolution of the infection, CFU of vaginal fluid: less than 10^3 CFU/ml of vaginal fluid
[3]
  effectiveness: effective
[4]; laminarin 12.5 μg/ml
  CFU: 0
[4]; laminarin 25 μg/ml
  CFU: 1.33 ± 0.58
[4]; laminarin 50 μg/ml
  CFU: 115.33 ± 12.58
[4]; laminarin 100 μg/ml
  CFU: 2766.66 ± 63.54
[4]; no glucan
  CFU: 0
[4]; pustulan 12.5 μg/ml
  CFU: 0
[4]; pustulan 25 μg/ml
  CFU: 0
[4]; pustulan 50 μg/ml
  CFU: 0
[4]; pustulan 100 μg/ml
  CFU: 0
[5]
  inhibition of binding of KT mAb to the cells: completely inhibited
[6]
  effectiveness: effective
[7]; peptide 6.25 μg/ml
  % growth in comparison to the control: 0%
[7]; peptide 25 μg/ml
  % growth in comparison to the control: 0%
[7]; peptide 100 μg/ml
  % growth in comparison to the control: 0%
[8]
  effectiveness: effective
[9]
  concentration above which peptide interferes with viral growth: Above 60 μg/ml
  concentration giving complete blocking of viral growth: 80 µg/mL
  effect of laminarin on anti-influenza activity: laminarin abolishes the antiviral activity of KM
  effect on viral growth (HA titres): little or no effect
[10]
  antimicrobial activity on growth: good antimicrobial activity
[11]
  haemadsorption OD420nm: significant reduction of OD420nm
  interference with virus-specific receptors on red blood cells: Neither KM nor SP interferes
[12]; 50 μg, FIG. 9
  survival compared with fluconazole: out-performed fluconazole
[12]; 5 LD50 i.v., 50 μg i.p. at 1, 24, 48 h, 60 days
  animals died / group: ⅛
[12]; 5 LD50 i.v., 50 μg i.p. at 1, 24, 48 h, followed 60 days
  median survival time: > 60 days
[13]
  effectiveness: effective
[14]
  effectiveness: effective
